Test [1] has as its target full-length strep-tagged POLD3 (human) (UniProt Q15054). Briefly: BLI; POLD3 immobilised on Streptavidin (SAX) biosensors, BLItz, 1x PBS and 0.02% Tween; both purified.
Test [2] deals with T1, POLD3-HA (full-length) (human) (UniProt Q15054).
T1 sequence: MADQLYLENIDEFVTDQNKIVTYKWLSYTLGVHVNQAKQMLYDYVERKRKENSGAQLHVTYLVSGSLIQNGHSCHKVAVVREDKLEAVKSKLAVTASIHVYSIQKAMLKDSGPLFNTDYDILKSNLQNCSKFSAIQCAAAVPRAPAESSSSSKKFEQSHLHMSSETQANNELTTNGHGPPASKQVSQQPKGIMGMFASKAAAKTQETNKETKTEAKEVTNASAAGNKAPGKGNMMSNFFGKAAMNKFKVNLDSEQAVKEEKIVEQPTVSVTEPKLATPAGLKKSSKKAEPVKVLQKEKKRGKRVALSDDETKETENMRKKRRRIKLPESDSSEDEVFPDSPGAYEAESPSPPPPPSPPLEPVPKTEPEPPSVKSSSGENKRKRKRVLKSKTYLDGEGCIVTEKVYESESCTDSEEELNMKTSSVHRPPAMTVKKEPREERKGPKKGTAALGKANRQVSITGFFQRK
Briefly: co-IP; anti-HA beads, soluble extract of 293T cells (wild-type or MCM2-2A mutant) expressing HA-tagged POLD3 constructs, DNase I and ethidium bromide, 200 mM NaCl, 0.5% NP-40.

By UniProt entry, the sequences of proteins in these tests, tags left out. Where a name states a change or a piece, a line headed by the entry shows the natural chain unless it says otherwise. Chains listed by the source or under a name are the forms on record and can include a tag or linker.
UniProt P49736: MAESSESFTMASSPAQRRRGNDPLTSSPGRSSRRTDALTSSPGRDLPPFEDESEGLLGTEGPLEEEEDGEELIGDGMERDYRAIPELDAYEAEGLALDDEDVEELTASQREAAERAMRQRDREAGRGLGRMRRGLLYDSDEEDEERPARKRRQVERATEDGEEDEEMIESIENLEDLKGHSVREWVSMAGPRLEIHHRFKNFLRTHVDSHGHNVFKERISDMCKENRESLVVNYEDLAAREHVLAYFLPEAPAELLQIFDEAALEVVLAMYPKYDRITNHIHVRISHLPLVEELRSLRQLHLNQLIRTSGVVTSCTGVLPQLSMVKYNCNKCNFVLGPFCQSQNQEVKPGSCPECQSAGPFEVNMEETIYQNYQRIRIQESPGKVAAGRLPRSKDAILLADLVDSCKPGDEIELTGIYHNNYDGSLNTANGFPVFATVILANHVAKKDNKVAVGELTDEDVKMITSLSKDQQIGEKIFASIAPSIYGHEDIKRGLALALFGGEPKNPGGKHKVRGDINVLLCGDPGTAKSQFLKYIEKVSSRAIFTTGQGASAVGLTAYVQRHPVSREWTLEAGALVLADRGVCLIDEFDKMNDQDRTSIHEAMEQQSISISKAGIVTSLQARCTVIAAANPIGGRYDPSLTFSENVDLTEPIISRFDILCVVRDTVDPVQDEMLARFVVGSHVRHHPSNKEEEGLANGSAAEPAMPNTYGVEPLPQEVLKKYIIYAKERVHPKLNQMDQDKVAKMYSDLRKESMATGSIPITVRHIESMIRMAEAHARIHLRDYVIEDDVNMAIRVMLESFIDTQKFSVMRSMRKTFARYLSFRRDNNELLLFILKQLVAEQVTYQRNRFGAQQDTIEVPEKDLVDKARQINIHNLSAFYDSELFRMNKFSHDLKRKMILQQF
MCM2-2A histone-binding domain (MCM2-2A-HBD) (P49736, form named): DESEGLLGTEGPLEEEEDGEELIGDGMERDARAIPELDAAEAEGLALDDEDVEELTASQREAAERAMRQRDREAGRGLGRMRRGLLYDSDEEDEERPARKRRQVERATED
MCM2-2A (endogenous, MCM2-2A mutant 293T cells) (human (endogenous in 293T)) (P49736, form named): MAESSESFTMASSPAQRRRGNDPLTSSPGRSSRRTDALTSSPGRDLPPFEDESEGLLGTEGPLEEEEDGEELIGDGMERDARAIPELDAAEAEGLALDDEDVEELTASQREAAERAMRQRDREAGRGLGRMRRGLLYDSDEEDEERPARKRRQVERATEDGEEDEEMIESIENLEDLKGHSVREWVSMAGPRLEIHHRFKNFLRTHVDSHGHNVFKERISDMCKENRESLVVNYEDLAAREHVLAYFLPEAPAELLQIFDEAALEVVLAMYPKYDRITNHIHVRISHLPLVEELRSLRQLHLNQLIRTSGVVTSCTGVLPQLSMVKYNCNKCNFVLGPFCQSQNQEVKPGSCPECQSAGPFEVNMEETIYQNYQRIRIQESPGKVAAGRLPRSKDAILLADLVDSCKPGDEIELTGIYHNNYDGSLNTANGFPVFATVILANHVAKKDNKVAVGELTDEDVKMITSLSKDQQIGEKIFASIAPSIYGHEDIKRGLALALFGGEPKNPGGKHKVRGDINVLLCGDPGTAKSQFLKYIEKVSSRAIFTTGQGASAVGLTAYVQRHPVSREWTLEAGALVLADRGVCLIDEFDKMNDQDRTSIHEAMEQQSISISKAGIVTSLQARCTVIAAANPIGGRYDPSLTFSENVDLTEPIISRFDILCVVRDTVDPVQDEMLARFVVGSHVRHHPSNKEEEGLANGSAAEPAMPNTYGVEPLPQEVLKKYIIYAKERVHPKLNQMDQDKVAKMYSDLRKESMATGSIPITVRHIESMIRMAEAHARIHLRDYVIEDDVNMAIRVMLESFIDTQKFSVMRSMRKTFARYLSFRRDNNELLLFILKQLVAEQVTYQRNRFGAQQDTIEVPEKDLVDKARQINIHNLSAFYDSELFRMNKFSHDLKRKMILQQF
UniProt Q9NRF9: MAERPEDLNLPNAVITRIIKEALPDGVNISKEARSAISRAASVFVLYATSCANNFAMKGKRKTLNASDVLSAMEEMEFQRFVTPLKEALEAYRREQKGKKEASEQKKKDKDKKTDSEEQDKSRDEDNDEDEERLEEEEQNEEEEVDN
UniProt Q08945: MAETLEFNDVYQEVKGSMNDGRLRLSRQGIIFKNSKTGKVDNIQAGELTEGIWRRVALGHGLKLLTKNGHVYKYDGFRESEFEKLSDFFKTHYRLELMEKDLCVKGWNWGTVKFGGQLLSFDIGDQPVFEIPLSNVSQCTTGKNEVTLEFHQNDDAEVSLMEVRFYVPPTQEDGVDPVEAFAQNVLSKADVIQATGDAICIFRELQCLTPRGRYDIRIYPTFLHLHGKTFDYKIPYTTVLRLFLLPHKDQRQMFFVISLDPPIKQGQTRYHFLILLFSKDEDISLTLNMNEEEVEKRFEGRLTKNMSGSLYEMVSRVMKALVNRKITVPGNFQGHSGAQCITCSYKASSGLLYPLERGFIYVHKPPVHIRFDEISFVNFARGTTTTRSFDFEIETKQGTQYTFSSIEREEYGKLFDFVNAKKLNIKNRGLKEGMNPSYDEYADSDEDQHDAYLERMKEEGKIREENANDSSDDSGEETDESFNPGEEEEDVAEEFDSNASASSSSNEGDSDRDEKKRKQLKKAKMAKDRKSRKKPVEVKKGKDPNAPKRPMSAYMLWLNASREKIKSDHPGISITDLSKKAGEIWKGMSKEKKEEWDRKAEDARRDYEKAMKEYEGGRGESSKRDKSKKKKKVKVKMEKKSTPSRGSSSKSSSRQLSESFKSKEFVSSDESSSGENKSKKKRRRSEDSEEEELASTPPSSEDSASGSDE

The target of test [3] is MCM2 (endogenous, 293T) (human (endogenous in 293T)) (UniProt P49736). As to the kind of experiment: co-IP; anti-MCM2 antibody and protein A/G beads, lysate of wild-type or MCM2-2A mutant 293T cells, 200 mM NaCl, 0.5% NP-40; IgG as negative control.
Test [4] addresses MCM2-2A (endogenous, MCM2-2A mutant 293T cells) (human (endogenous in 293T)) (UniProt P49736). The description is as above.

Results are given in words; binding and its absence hold for the method and conditions named. For some assays here: In cells and extracts the contact can be indirect. Some binding calls cover weakened binding; strength is not graded here. For some assays here: Where a sequence is shown, tags or fusion partners need not be part of it.

Regarding “MCM2-2A histone-binding domain (MCM2-2A-HBD) (from UniProt P49736 51-160) (domain or fragment)”, the binding entry in test [1] is “no binding”.
“MCM2-HBD (amino acids 51-160) (from UniProt P49736 51-160) (domain or fragment)”: the binding entry in test [1] is “no binding”.
“POLE3 (endogenous, 293T) (from UniProt Q9NRF9 1-147)”: in test [2], the binding result is listed as “no binding”.
Take “SSRP1 (endogenous, 293T) (from UniProt Q08945 1-709)”: the values for the binding result in test [3] and in test [4] were “binds” and “no binding”, respectively.

These data come from publication PMC13156308.
